The name of at least one read-out is uncertain.
Experiment: Solubility
Assay type: physicochemical
Procedure: One ml of each of the following solvents dissolved approximately 2 mg of Pt-268: […]

Measured: amount dissolved by one ml of solvent

N-phosphonacetyl-L-aspartato(1,2-diaminocyclohexane)platinum(II), Na [Pt-268]
approximately 2 mg: Ammonia | Formic acid | Glacial acetic acid
